# PubChem BioAssay (NCATS)
# “And” between values parts separate entries of the source, which are not always exact repeats. Identical values can stand only once. This is one part of the list. These are further read-outs of the screen, such as a control signal, another cell line or another target. No call is given for them. Most of these compounds were active or inconclusive in the main read-out, so they are no random draw. For some assays here: Potencies come from curve fits of mixed quality, noted in brackets.
# Test: qHTS assay for small molecule antagonists of vitamin D receptor signaling (AID 588541)
# Details: HEK293T VDR-UAS-bla, beta-lactamase ratio, antagonist mode; measured here: W460 blue channel (cell viability)
row,SMILES,AC50
1,O=C1C=CC(=O)c2ccccc21,"50.1 µM [falling, single point]"
2,CCC[CH2][Sn]([Cl])([Cl])[CH2]CCC,"25.1 µM [falling, partial curve]"
3,CCSCCSP(=O)(OC)OC,"25.1 µM [rising, single point]"
4,OC(c1ccc(Cl)cc1)(c1cncnc1)c1ccccc1Cl (stereo not drawn),"39.8 µM [falling, single point]"
5,c1ccc2cc3c(ccc4ccccc43)cc2c1,"35.5 µM [rising, partial curve, poor fit]"
6,CCCCCCCCCCCCCl,"0.00447 µM [falling, full curve, poor fit]"
7,CC(C)(C)C(=O)[C@@H](Oc1ccc(Cl)cc1)n1cncn1,"20 µM [rising, full curve, poor fit]"
8,O=[N+]([O-])C(Br)(CO)CO,"50.1 µM [falling, single point]"
9,S=C([S-])NCCNC(=S)[S-].[Mn+2],"44.7 µM [falling, single point]"
10,CCCCCCCCCc1ccc(O)cc1,"44.7 µM [falling, partial curve, poor fit]"
11,Nc1ccccc1,"0.0282 µM [rising, full curve, poor fit]"
12,CCC(C)(C)c1ccc(O)c(C(C)(C)CC)c1,"50.1 µM [falling, single point]"
13,COP(=S)(OC)Oc1nc(Cl)c(Cl)cc1Cl,"12.6 µM [rising, partial curve, poor fit]"
14,C=CCOC(=O)C(C)(C)OC(=O)c1cc(-n2c(=O)cc(C(F)(F)F)n(C)c2=O)ccc1Cl,"22.4 µM [falling, partial curve, poor fit]"
15,COP(=O)(OC)OC(Br)C(Cl)(Cl)Br (stereo not drawn),"44.7 µM [falling, partial curve, poor fit]"
16,S=C([S-])NCCNC(=S)[S-].[Zn+2],"22.4 µM [rising, single point]"
17,O=C(O)COc1ccc(Cl)cc1,"0.00251 µM [rising, full curve, poor fit]"

# Test: qHTS assay for small molecule agonists of retinoid X receptor alpha signaling (AID 588544)
# Details: HEK293T RXRa-UAS-bla, beta-lactamase reporter, 18 h; 530 nm emission
row,SMILES,max response
1,O=[N+]([O-])c1ccc(Oc2ccc(Cl)cc2Cl)cc1,2.67%
2,CCS(=O)(=O)c1cccnc1S(=O)(=O)NC(=O)Nc1nc(OC)cc(OC)n1,-3.06%
3,CCC[CH2][Sn]([Cl])([Cl])[CH2]CCC,-18.7%
4,ClC1=C(Cl)[C@]2(Cl)[C@@H]3[C@@H]4C[C@@H]([C@H]5O[C@@H]45)[C@@H]3[C@@]1(Cl)C2(Cl)Cl,6.92%
5,OC(c1ccc(Cl)cc1)(c1cncnc1)c1ccccc1Cl (stereo not drawn),29.2%
6,CSC(=O)c1c(C(F)F)nc(C(F)(F)F)c(C(=O)SC)c1CC(C)C,-16.1%
7,Cc1cc(-c2ccc(N)c(C)c2)ccc1N,27.1%
8,O=C(Oc1ccccc1)c1ccccc1O,-8.98%
9,CC(O)CN(CC(C)O)CC(C)O (stereo not drawn),-15.2%
10,O=C1C[C@@H]2OCC=C3CN4CC[C@]56c7ccccc7N1[C@H]5[C@H]2[C@H]3C[C@H]46,-5.34%
11,O=[N+]([O-])C(Br)(CO)CO,59.9%
12,S=C([S-])NCCNC(=S)[S-].[Mn+2],8.99% and 23%
13,Cc1c(COC(=O)C2C(/C=C(\Cl)C(F)(F)F)C2(C)C)cccc1-c1ccccc1 (stereo not drawn),39%
14,Nc1ccc(Cc2ccc(N)cc2)cc1,2.75%
15,CCCCCCCCCc1ccc(O)cc1,-68.9%
16,COC[C@H](C)N(C(=O)CCl)c1c(C)csc1C,12.5%
17,CCC(C)(C)c1ccc(O)c(C(C)(C)CC)c1,-14.2%
18,COP(=S)(OC)Oc1nc(Cl)c(Cl)cc1Cl,56.4%
19,CCOP(=S)(OCC)SCSP(=S)(OCC)OCC,25.3%
20,COP(=O)(OC)OC(Br)C(Cl)(Cl)Br (stereo not drawn),1.82%
21,S=C([S-])NCCNC(=S)[S-].[Zn+2],90.6% and 32.8%
